The entries are a selection whose mix differs from that of the whole data set.
Assays:
HCC1937 = test: relative cell viability, compound + erastin, vs DMSO (fraction of DMSO control); higher = less growth inhibition; conditions: 72 h
MDA-MB-231 = test: as above; conditions: 72 h
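Further: viability read by CCK-8 kit in 96-well plates, part of a combination screen pairing lipid-metabolism-targeting compounds with erastin.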

SMILES: Cc1c(C(=O)NN2CCCCC2)nn(-c2ccc(Cl)cc2Cl)c1-c1ccc(I)cc1 + CCOc1ccccc1-n1c(C(C)N2CCN(C(=O)COc3ccc(Cl)cc3)CC2)nc2ccccc2c1=O [erastin]
- relative cell viability (HCC1937): 0.402
- relative cell viability (MDA-MB-231): 0.459
